# Data: PubChem BioAssay AID493014 (National Center for Advancing Translational Sciences (NCATS), 2011)
# The other results are listed elsewhere or left out. These are further read-outs of the screen, such as a control signal, another cell line or another target. No call is given for them. Most of these compounds were active or inconclusive in the main read-out, so they are no random draw. The note in brackets gives the kind of curve behind each potency; many fits are weak.
# Test: qHTS Assay to Find Inhibitors of Chronic Active B-Cell Receptor Signaling
# Settings: ABC-DLBCL IkBa-CBG/CBR reporter, luminescence ratio (green luciferase fused to IkBa over red control in TMD8 lymphoma cells), 4 h
# In short: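 Concentration-response series (up to 46 uM) were applied to TMD8 dual-reporter cells for 4 h at 37C with doxycycline. Green/red ratio, after filter-overlap correction, defined %Activity; red signal alone was normalised to basal cells and zero luminescence.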
# [1] = measured here: CBR red luminescence, cell number
# [2] = measured here: IkBa-CBG green luminescence
smiles,measurement,setting,value
COc1cccc(CN2CCNC(=O)C2CC(=O)N(C)C2CCOCC2)c1OC (configuration not stated),AC50,[1],"5.62 µM [rising, single point]"
CCN(CC)S(=O)(=O)c1ccc(C)c(NC(=O)COC(=O)CCC(=O)c2cccs2)c1,AC50,[1],"16.4 µM [rising, partial curve, poor fit]"
Cc1nn(C(C)C(=O)N2CCc3ccccc3C2)c(=O)c2cc3occc3n12 (configuration not stated),AC50,[1],"35.5 µM [falling, single point]"
Cc1cccc(CSc2nc3nc(C)cc(C)n3n2)c1,AC50,[1],"15.8 µM [rising, single point]"
COc1ccc(N2C(=O)CS(=O)C(c3ccccc3)C2=O)cc1 (configuration not stated),AC50,[1],"12.6 µM [falling, partial curve]"
same,AC50,[2],"15.8 µM [falling, partial curve, poor fit]"
CCOC(=O)c1c(C)oc(NC(=O)CCl)c1C(=O)OCC,AC50,[1],"10 µM [falling, partial curve]"
CCOC(=O)CC1ON(C)C(=O)N1c1ccc([N+](=O)[O-])cc1 (configuration not stated),AC50,[1],"1.3 µM [rising, full curve]"
COc1ccc(S(=O)(=O)Nc2nc3ccccc3nc2Nc2ccc3c(c2)OCO3)cc1,AC50,[1],"0.731 µM [falling, full curve, poor fit]"
N#Cc1nc(-c2ccccc2F)oc1N1CCN(C(=O)c2ccco2)CC1,AC50,[1],"12.6 µM [falling, partial curve, poor fit]"
Cc1nc2ccc3[nH]snc3c2n1,AC50,[1],"2.31 µM [falling, single point]"
CC(C)NS(=O)(=O)c1ccc(NC(=S)NC(=O)c2cccc([N+](=O)[O-])c2)cc1,AC50,[1],"16.4 µM [falling, partial curve, poor fit]"
Cc1ccc(O)c(CNc2nc3ccccc3n2C)c1,AC50,[1],"28.2 µM [rising, partial curve, poor fit]"
Cc1cccc(Oc2cc(NC(=O)Cn3cnc([N+](=O)[O-])n3)cc([N+](=O)[O-])c2)c1,AC50,[1],"20.6 µM [falling, single point]"
Cn1nccc1C(=O)Oc1ccc(/C=N/NC(=O)c2ccccc2O)cc1,AC50,[1],"1.12 µM [falling, full curve]"
CCN(CC)CCOc1ccc(/C(=C(/Cl)c2ccccc2)c2ccccc2)cc1,AC50,[1],"15.8 µM [falling, single point]"
C=CCNC(=S)N/N=C(\C)c1cccc(NC(C)=O)c1,AC50,[1],"35.5 µM [falling, single point]"
same,AC50,[2],"22.4 µM [falling, single point]"
Cc1ccc(NC(=O)c2cc(NC(=O)c3ccco3)ccc2N2CCOCC2)cc1,AC50,[1],"1.3 µM [falling, full curve]"
Cc1cc(/C=C2/NC(=O)NC2=O)c(C)n1-c1sc2c(c1C#N)CCCC2,AC50,[1],"29.1 µM [falling, single point]"
O=C(Nc1ccc(NC(=O)c2cccs2)cn1)c1ccco1,AC50,[1],"14.1 µM [falling, single point]"
C=CCSc1nnc(NC(=O)C2=COCCO2)s1,AC50,[1],"18.4 µM [falling, single point]"
C/C(=N/NC(=O)CNc1ccc(Cl)cc1C)c1ccc(C)cc1,AC50,[1],"14.1 µM [falling, partial curve, poor fit]"
COC(=O)C1=C(C)NC(C)=C(C(=O)OC)C1C(=O)OCCN1C(=O)c2ccccc2C1=O,AC50,[1],"3.55 µM [rising, single point]"
CNC(=O)c1c(Cl)cnn1-c1ccc(F)cc1,AC50,[1],"35.5 µM [rising, single point]"
CN(C)S(=O)(=O)c1cccc(NC(=O)COc2ccccc2C(=O)NCc2ccccc2)c1,AC50,[1],"2.06 µM [falling, partial curve, poor fit]"
COc1ccc(C(=O)Nc2ccc(F)cc2F)cc1OC,AC50,[1],"12.6 µM [falling, partial curve]"
O=C(CCC1CCCCC1)Nc1nnc(C(F)(F)F)s1,AC50,[1],"0.316 µM [rising, full curve, poor fit]"
CCCN(C(=O)c1c(-c2ccccc2)noc1C)c1c(N)n(Cc2ccccc2)c(=O)[nH]c1=O,AC50,[1],"20.6 µM [falling, single point]"
C/C(=N\NC(=S)NC1CCCCC1)c1c(F)cccc1F,AC50,[1],"17.8 µM [rising, single point]"
same,AC50,[2],"7.08 µM [falling, partial curve, poor fit]"
COc1ccccc1N1CCN(C(=O)c2cccc(N3C(=O)NC4CC3(C)Oc3c(OC)cccc34)c2)CC1 (configuration not stated),AC50,[1],"10 µM [falling, partial curve, poor fit]"
CCN(CC)C(=O)c1sc2c(c1C)c(=O)n(Cc1ccccc1)c(=O)n2Cc1c(C)cc(C)cc1C,AC50,[1],"12.6 µM [falling, partial curve, poor fit]"
Cc1cccc(/C=C2\Sc3ccc(C(=O)N4CCCCC4)cc3N(C)C2=O)c1,AC50,[1],"14.1 µM [falling, partial curve]"
Fc1cccc(NC(=S)N2CCn3cccc3C2c2cccnc2)c1 (configuration not stated),AC50,[1],"35.5 µM [rising, partial curve, poor fit]"
CC(=O)Nc1ccc(-c2csc(Nc3cccc(C)n3)n2)cc1,AC50,[1],"3.55 µM [falling, partial curve, poor fit]"
COc1ccc(/C(C)=N/Nc2cc(C(F)(F)F)ccc2Cl)c(OC)c1,AC50,[1],"14.6 µM [rising, single point]"
O=C1CCC(=O)N1CC(O)COc1ccccc1 (configuration not stated),AC50,[1],"3.55 µM [rising, full curve, poor fit]"
O=C(Nc1ccc2c(c1)OCO2)Nc1ccc(F)cc1F,AC50,[1],"5.01 µM [falling, partial curve]"
COc1ccc(-n2cc(CNCCCN3CCCC3=O)c(-c3ccccc3Cl)n2)cc1,AC50,[1],"4.47 µM [rising, full curve, poor fit]"
C=CCOc1nc(-c2ccncc2)nc2ccccc12,AC50,[1],"20 µM [falling, partial curve, poor fit]"
CCC(Oc1ccccc1)C(=O)Nc1ccc(-c2nnc(-c3ccco3)o2)cc1 (configuration not stated),AC50,[1],"1.3 µM [rising, full curve, poor fit]"
CCOCc1cn(CC(=O)c2ccc(Cl)cc2)c(C)nc1=N,AC50,[1],"0.517 µM [rising, full curve, poor fit]"
Clc1ccc(OCCCn2cncn2)cc1Cl,AC50,[1],"29.1 µM [rising, single point]"
Cc1cccc(CCNC(=O)CCNS(=O)(=O)c2cc(Br)cnc2N)c1,AC50,[1],"6.31 µM [falling, full curve, poor fit]"
Cc1cnc(NC(=O)c2ccc(OCC3CCCO3)cc2)s1 (configuration not stated),AC50,[1],"7.08 µM [falling, partial curve]"
CN(C)c1nc(NC(C)(C)C)nc(SCC(=O)Nc2ccccc2)n1,AC50,[1],"2.51 µM [rising, partial curve, poor fit]"
NC(=Nc1ccc(N)cc1)C(N)=Nc1ccc(N)cc1,AC50,[1],"11.2 µM [falling, partial curve, poor fit]"
O=C(COc1ccccc1)NNC1=NS(=O)(=O)c2ccccc21,AC50,[1],"15.8 µM [falling, single point]"
O=C(CN1C(=O)c2ccccc2S1(=O)=O)NC1CC2CCC1C2 (configuration not stated),AC50,[1],"0.231 µM [rising, full curve, poor fit]"
Cn1ncc(Br)c1C(=O)OCC(=O)Nc1nc(-c2ccccc2)cs1,AC50,[1],"5.17 µM [falling, full curve]"
COc1ccc(/C=N/NC(=O)c2ccn[nH]2)cc1COc1ccc([N+](=O)[O-])c(C)c1,AC50,[1],"35.5 µM [falling, single point]"
COCC(C)NC(=O)NC(=O)c1ccc(Cl)cc1 (configuration not stated),AC50,[1],"2.91 µM [rising, partial curve, poor fit]"
CCN(c1ccccc1)S(=O)(=O)c1cc(C(=O)NCC(c2ccco2)N2CCCCC2)ccc1C (configuration not stated),AC50,[1],"29.1 µM [falling, single point]"
CN1CCN(C(=O)C2=C[C@H](c3csc4ccccc34)C[C@H](OCCCCO)O2)CC1,AC50,[1],"0.794 µM [rising, full curve, poor fit]"
CCCCN(CCCNC(=O)C1CCN(S(=O)(=O)N2CCOCC2)CC1)c1ccccc1,AC50,[1],"35.5 µM [falling, single point]"
Cc1c(OC(C)C(=O)NCCN2CCOCC2)ccc2c3c(c(=O)oc12)CCCC3 (configuration not stated),AC50,[1],"11.2 µM [rising, single point]"
CCc1ccc(CN(C)Cc2nc(-c3cccc(Cl)c3)no2)nc1,AC50,[1],"11.2 µM [rising, single point]"
COc1ccc2c(c1)CCc1c-2n[nH]c1C(=O)NCCC(C)C,AC50,[1],"35.5 µM [falling, single point]"
CCOC(=O)c1cccc(Nc2nc(-c3cccnc3)nc3ccccc23)c1,AC50,[1],"12.6 µM [falling, single point]"
C=CCOc1ccccc1C(=O)/C=C1/C(=O)Nc2ccccc21,AC50,[1],"20 µM [falling, single point]"
Cc1noc(C)c1COc1ccccc1C(=O)NC1CCC(C)CC1 (configuration not stated),AC50,[1],"2.82 µM [rising, single point]"
Cc1ccccc1C(=O)Nc1cccc(NC(=O)c2ccc(F)cc2)c1,AC50,[1],"7.08 µM [falling, partial curve, poor fit]"
Cc1cc(C)nc(NC(=O)c2ccc(Cl)cc2Cl)n1,AC50,[1],"31.6 µM [rising, single point]"
Cc1cc(=O)oc(C)c1C(=O)OCC(=O)c1ccc(Cl)c(Cl)c1,AC50,[1],"20.6 µM [rising, single point]"
COc1ccc([N+](=O)[O-])cc1/C=N/NC(=O)Cc1ccccc1,AC50,[1],"11.2 µM [rising, partial curve]"
COc1ccc(C2CC(c3ccccc3O)=NN2C(=O)c2ccccc2)cc1OC (configuration not stated),AC50,[1],"15.8 µM [falling, single point]"

# Reprinted at random: three entries already listed
smiles,measurement,setting,value
Cc1ccc(O)c(CNc2nc3ccccc3n2C)c1,AC50,[1],"28.2 µM [rising, partial curve, poor fit]"
COc1ccc2c(c1)CCc1c-2n[nH]c1C(=O)NCCC(C)C,AC50,[1],"35.5 µM [falling, single point]"
Fc1cccc(NC(=S)N2CCn3cccc3C2c2cccnc2)c1 (configuration not stated),AC50,[1],"35.5 µM [rising, partial curve, poor fit]"
